Measurements from PubChem BioAssay AID652054 (National Center for Advancing Translational Sciences (NCATS), 2013).
Among all 360,000 compounds or so, about 9,100 (2.5%) were called active. This list was built around the results that the source calls inconclusive (neither active nor inactive); the mix of calls is not that of the screen. Rule as the data show it: active = max response below about -50%; inconclusive = no clear call, values can overlap the other calls; inactive = above that.

By UniProt entry, the sequences of proteins in these tests, tags left out.
UniProt P35462, whole entry, looked up: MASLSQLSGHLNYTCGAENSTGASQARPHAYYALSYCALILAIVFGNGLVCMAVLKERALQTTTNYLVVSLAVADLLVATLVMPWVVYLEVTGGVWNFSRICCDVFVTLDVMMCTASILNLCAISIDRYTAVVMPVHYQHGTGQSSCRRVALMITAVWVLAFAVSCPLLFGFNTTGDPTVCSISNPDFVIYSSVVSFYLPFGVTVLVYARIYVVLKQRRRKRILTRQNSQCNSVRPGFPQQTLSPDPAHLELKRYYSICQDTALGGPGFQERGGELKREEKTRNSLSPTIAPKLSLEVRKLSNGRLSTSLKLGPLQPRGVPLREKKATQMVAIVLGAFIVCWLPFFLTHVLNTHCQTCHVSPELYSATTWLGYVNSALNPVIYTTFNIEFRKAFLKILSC

Each compound was assayed against D(3) dopamine receptor (Homo sapiens) (UniProt P35462) (assay: qHTS of D3 Dopamine Receptor Antagonist: qHTS). Conditions: D3R cells, DiscoveRx beta-arrestin luminescence, antagonist mode; hits give low values.
How it was run: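 Cells plated overnight at 1500 cells/well, then exposed to library compounds with dopamine controls for 90 minutes at 37 degrees C. DiscoveRx reagent added for 30–60 minutes at room temperature; luminescence read, quantitative HTS format.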
% is scaled to controls: 0 for no effect and ±100 for the full control effect.

| SMILES | max response, negative = inhibition |
| --- | --- |
| Cc1[nH]c2ccc(C(=O)NCCN3CCCCCC3)cc2c1C | active: -69.5% |
| COc1cccc(OC)c1OCC(C)CNCC1CCCO1 (centres undefined) | active: -66.9% |
| COc1ccc(Cc2noc(CN(C)CCN3CCc4ccccc4C3)n2)cc1OC | inconclusive: -46.6% |
| CC(C)NS(=O)(=O)c1ccc(NC(=O)C(C)Oc2ccc(C(=O)c3ccccc3)cc2)cc1 (centres undefined) | active: -54.3% |
| FC(F)(F)c1nc2ccccc2nc1N/N=C\c1ccccc1 | inconclusive: -36.7% |
| CNC(=O)c1cc(Oc2ccc(NC(=O)Nc3ccc(Cl)c(C(F)(F)F)c3)cc2)ccn1 | active: -58% |
| CCOC(=O)C1(Cc2cccc(OC)c2)CCN(CC2CC=CCC2)CC1 (centres undefined) | inconclusive: -39.3% |
| CC(/C=C/c1ccccc1)=N\NC(=O)c1ccncc1 | inconclusive: -32.6% |
| Cn1c2ccccc2c2c(C(=O)NCc3ccco3)cn(C3CCCCC3)c(=O)c21 | inconclusive: -34.1% |
| Cc1ccc2c(c1)C(=O)CC(O)(C(F)(F)F)O2 (centres undefined) | inactive: -5.41% |
| NC(=O)CC(NC(=O)Cc1cccc2ccccc12)c1ccc(N2CCC(Cc3ccccc3)CC2)c([N+](=O)[O-])c1 (centres undefined) | inconclusive: -31.8% |
| CCOc1ccc(C2/C(=C(\O)c3ccc4c(c3)OCCO4)C(=O)C(=O)N2Cc2cccnc2)cc1OCC (centres undefined) | inactive: -14.8% |
| CN(CCOc1ccc(Cl)c(Cl)c1)Cc1ccccc1 | active: -93.3% |
| C[C@H](CO)NC(=O)[C@H](C)[C@H]1C[C@]1(C)[C@H](NC(=O)OCc1ccccc1)c1ccccc1 | inconclusive: -34.5% |
| COCc1nc2ccccc2n1Cc1cccc(C)c1 | inactive: 0% |
| CCC(=O)Nc1ccc(C(=O)Nc2ccc3c(c2)OCO3)cc1 | inconclusive: -46.7% |
| CCC(Oc1ccc2c(c1)C(=O)CC(C)(C)O2)C(=O)NCCN1CCCCCC1 (centres undefined) | inconclusive: -41.8% |
| COc1ccccc1-c1cc(C(=O)Nc2sc3c(c2C#N)CCC(C)C3)c2ccccc2n1 (centres undefined) | active: -63% |
| CCOC(=O)C1CCN(Cc2c(F)cccc2Cl)CC1 | inconclusive: -42.5% |
| CCN(CC)CCNC(=O)C12CC3CC(CC(C3)C1)C2 | active: -62.9% |
| Cc1cccc(NC(=O)CCc2c(C)nn(-c3ccc(N4CCOCC4)nn3)c2C)c1 | inactive: 0.991% |
| COc1ccc(-c2cc3nc(C)cc(N4CC(C)CC(C)C4)n3n2)cc1 (centres undefined) | inactive: -4.75% |
| Cc1ccn2c(CNCCCn3cccn3)c(C(=O)N3CCCCCC3)nc2c1 | active: -58.1% |
| O=[N+]([O-])c1cccc(S(=O)(=O)Nc2ccc(S(=O)(=O)Nc3nccs3)cc2)c1 | inconclusive: -46.3% |
| O=C(C1=C(O)C(=O)N(Cc2ccco2)C1c1cccc([N+](=O)[O-])c1)c1ccco1 (centres undefined) | inactive: -26.1% |
| COc1cc(C(=O)NC(CCSC)C(=O)Nc2ccc(N3CCOCC3)cc2)cc(OC)c1OC (centres undefined) | active: -73.1% |
| COc1ccccc1N1CCN(C2CCN(S(=O)(=O)c3ccc4ccccc4c3)CC2)CC1 | active: -54% |

Single values from the entries so far:
For max response, negative = inhibition, Cn1c2ccccc2c2c(C(=O)NCc3ccco3)cn(C3CCCCC3)c(=O)c21 has the entry inconclusive: -34.1%
For max response, negative = inhibition, COc1cccc(OC)c1OCC(C)CNCC1CCCO1 (centres undefined) has the entry active: -66.9%
For max response, negative = inhibition, FC(F)(F)c1nc2ccccc2nc1N/N=C\c1ccccc1 has the entry inconclusive: -36.7%

Additional compounds

| SMILES | max response, negative = inhibition |
| --- | --- |
| CCN(CC)c1ccc(NC(=O)C2CC3CCC2C3)cc1 (centres undefined) | inconclusive: -42.4% |
| COc1cccc(/C=N/n2c(-c3cc(C)[nH]n3)n[nH]c2=S)c1 | inconclusive: -36.5% |
| O=C(CNC(=O)Cn1ccc2ccccc2c1=O)NCCCN1CCN(c2cccc(Cl)c2)CC1 | active: -75% |
| COc1ccc(/C=C2\SC(=S)N(CCCC(=O)N3CCCCC3CCO)C2=O)cc1 (centres undefined) | inactive: -12.3% |
| CCN1C(=O)[C@H]2[C@H]3CN=C(SCC4CC4)N3[C@@](Cc3ccccc3)(C(=O)OC)[C@H]2C1=O | inconclusive: -37.9% |
| Cc1[nH]c2ccccc2c1C(=O)CSc1ncn[nH]1 | inconclusive: -42.2% |
| Cc1nnc(SCc2cc(=O)[nH]c(N3CCN(C)CC3)n2)s1 | inactive: 2.33% |
| CCn1cc(C(=O)OCC(=O)Nc2c(C)cccc2C)c(=O)c2ccc(C)nc21 | inconclusive: -30.9% |
| CC1=CC(C)(C)Nc2ccc(OC(=O)CN3C(=O)CCC3=O)cc21 | inconclusive: -37.1% |
| Oc1cccc(/C=C/c2ccc3cccc(O)c3n2)c1 | inconclusive: -40.7% |
| CC(C)C[C@H]1CNC(=S)N1C[C@H]1CCCN1C[C@H](Cc1ccc(O)cc1)N1C[C@H](CC(C)C)N(CC2CCCCCC2)C1=S | active: -64.7% |
| O=C(Nc1cccc(Cl)c1)Nc1nccs1 | inconclusive: -48.4% |
| Cc1ccnc(N2C(=O)c3ccccc3C2O)c1 (centres undefined) | inactive: 0% |
| O=C(c1cc2sccc2n1Cc1ccccc1)N1CCc2ccccc21 | inconclusive: -39.6% |
| Cc1cc(Nc2ccccc2N2CCOCC2)n2ncnc2n1 | inconclusive: -37.7% |
| CN(C)CC1CCCCC1C1(O)c2ccccc2CSc2sccc21 (centres undefined) | active: -73% |
| COc1cc(C2C(C#N)=C(N)Oc3cc(C)oc(=O)c32)cc2c1OCO2 (centres undefined) | inconclusive: -36.2% |
| CC(C)CC1CCCCC1OC(=O)C[N+]1(C)CCCCC1 (centres undefined) | inactive: 7.38% |
| O=C(Nc1cc(-c2ccccc2)nn1-c1ccccc1F)c1ccc([N+](=O)[O-])cc1 | inconclusive: -30.7% |
| CC(C)=CCC/C(C)=C/CNC(=O)C[C@H]1C[C@H](C(=O)N2CCOCC2)[C@@]2(CCC3CCCC3)c3[nH]c4cc(CCC(=O)N(C)C)ccc4c3CCN2C1=O | inconclusive: -32.3% |
| COc1ccc(C(CCN2CCN(c3ccccc3)CC2)c2c(O)cc(OC)cc2OC)cc1 (centres undefined) | active: -112% |
| O=C(C1=C[C@H](c2csc3ccccc23)C[C@H](OCc2ccc(CO)cc2)O1)N1CCCCCCC1 | inconclusive: -43.6% |
| CCc1ccc(S(=O)(=O)NCc2ccc(C(=O)NCCN(Cc3ccccc3)C(C)C)cc2)cc1 | active: -90.5% |
| c1ccc(-c2[nH]ncc2CN2CCN(Cc3ccc4c(c3)OCO4)CC2)cc1 | inconclusive: -31.3% |
| COc1ccc(-c2noc(CSc3nc(N)cc(=O)[nH]3)n2)cc1 | inactive: 48.9% |
| C=CCn1c(-c2ccccc2)nc(=S)c2c1CC(C)(C)OC2 | inconclusive: -41.7% |
| Cc1ccc(Cc2cnc(N)s2)o1 | active: -53.2% |
